In this experiment the target is FLAG-tagged MGMT (O6-methylguanine-DNA methyltransferase) (human) (UniProt P16455). The experiment in a line: co-IP; cells transfected with FLAG-MGMT; FLAG-MGMT purified on anti-FLAG-agarose; coprecipitating endogenous USP19 detected by anti-USP19 antibody.

The chains behind the UniProt entries cited, without tags or fusion partners.
UniProt P16455: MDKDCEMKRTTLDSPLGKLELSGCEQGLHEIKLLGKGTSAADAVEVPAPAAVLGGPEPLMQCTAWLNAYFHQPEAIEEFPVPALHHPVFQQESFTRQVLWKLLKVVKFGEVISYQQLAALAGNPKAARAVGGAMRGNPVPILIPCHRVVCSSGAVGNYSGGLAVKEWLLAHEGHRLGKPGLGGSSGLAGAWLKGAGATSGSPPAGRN

These are yes or no findings as the source states them, for the method shown. Binding seen in cells or lysates may run through a third protein. Some entries that bind do so weakly or less than the wild type.

B1: endogenous USP19 (ubiquitin-specific protease USP19) (enzyme, UniProt O94966 1-1318)
chain: MSGGASATGPRRGPPGLEDTTSKKKQKDRANQESKDGDPRKETGSRYVAQAGLEPLASGDPSASASHAAGITGSRHRTRLFFPSSSGSASTPQEEQTKEGACEDPHDLLATPTPELLLDWRQSAEEVIVKLRVGVGPLQLEDVDAAFTDTDCVVRFAGGQQWGGVFYAEIKSSCAKVQTRKGSLLHLTLPKKVPMLTWPSLLVEADEQLCIPPLNSQTCLLGSEENLAPLAGEKAVPPGNDPVSPAMVRSRNPGKDDCAKEEMAVAADAATLVDEPESMVNLAFVKNDSYEKGPDSVVVHVYVKEICRDTSRVLFREQDFTLIFQTRDGNFLRLHPGCGPHTTFRWQVKLRNLIEPEQCTFCFTASRIDICLRKRQSQRWGGLEAPAARVGGAKVAVPTGPTPLDSTPPGGAPHPLTGQEEARAVEKDKSKARSEDTGLDSVATRTPMEHVTPKPETHLASPKPTCMVPPMPHSPVSGDSVEEEEEEEKKVCLPGFTGLVNLGNTCFMNSVIQSLSNTRELRDFFHDRSFEAEINYNNPLGTGGRLAIGFAVLLRALWKGTHHAFQPSKLKAIVASKASQFTGYAQHDAQEFMAFLLDGLHEDLNRIQNKPYTETVDSDGRPDEVVAEEAWQRHKMRNDSFIVDLFQGQYKSKLVCPVCAKVSITFDPFLYLPVPLPQKQKVLPVFYFAREPHSKPIKFLVSVSKENSTASEVLDSLSQSVHVKPENLRLAEVIKNRFHRVFLPSHSLDTVSPSDTLLCFELLSSELAKERVVVLEVQQRPQVPSVPISKCAACQRKQQSEDEKLKRCTRCYRVGYCNQLCQKTHWPDHKGLCRPENIGYPFLVSVPASRLTYARLAQLLEGYARYSVSVFQPPFQPGRMALESQSPGCTTLLSTGSLEAGDSERDPIQPPELQLVTPMAEGDTGLPRVWAAPDRGPVPSTSGISSEMLASGPIEVGSLPAGERVSRPEAAVPGYQHPSEAMNAHTPQFFIYKIDSSNREQRLEDKGDTPLELGDDCSLALVWRNNERLQEFVLVASKELECAEDPGSAGEAARAGHFTLDQCLNLFTRPEVLAPEEAWYCPQCKQHREASKQLLLWRLPNVLIVQLKRFSFRSFIWRDKINDLVEFPVRNLDLSKFCIGQKEEQLPSYDLYAVINHYGGMIGGHYTACARLPNDRSSQRSDVGWRLFDDSTVTTVDESQVVTRYAYVLFYRRRNSPVERPPRAGHSEHHPDLGPAAEAAASQASRIWQELEAEEEPVPEGSGPLGPWGPQDWVGPLPRGPTTPDEGCLRYFVLGTVAALVALVLNVFYPLVSQSRWR
Regarding B1, the binding entry is recorded as “binds”.

The values above are taken from publication PMC11033335.
